In PMC4917237:
These are yes or no findings as the source states them, for the method shown. For some of these results: Binding seen in cells or lysates may run through a third protein. For some of these results: Binding calls can cover weak binding; strength is not graded here. For some of these results: Where a sequence is shown, tags or fusion partners need not be part of it.

Columns and labels:
[1] = target: OsOFP8-YFP (rice (Oryza sativa)); assay: co-IP; Arabidopsis protoplasts co-transfected, 8 h; lysate in IP buffer (10 mM Tris-HCl pH 7.4, 150 mM NaCl, 0.5 mM EDTA, 0.2% Nonidet P-40, 5% glycerol); GFP-Trap agarose beads 4 h at 4°C; immunoblot with GFP and HA antibodies
[2] = target: OsOFP8 in pSPYCE-35S (BiFC fusion) (rice (Oryza sativa)); assay: split reporter; BiFC: pSPYNE-35S-OsGSK2 and pSPYCE-35S-OsOFP8 co-transfected into protoplast cells, 12 h in the dark, YFP fluorescence observed
[3] = target: OVATE domain-containing C-terminal region of OsOFP8, yeast two-hybrid fusion (rice (Oryza sativa)); assay: two-hybrid; yeast two-hybrid (Clontech), pGBKT7 and pGADT7 fusions; interaction read on SD-Leu-Trp-His-Ade plates
[4] = target: N-terminal region of OsOFP8, yeast two-hybrid fusion (rice (Oryza sativa)); assay: as above

B1: 3HA-OsGSK2 (enzyme, UniProt Q60EZ2 1-402)
chain: MDQPAPAPEPMLLDAQPPAAVACDKKQQEGEAPYAEGNDAVTGHIISTTIGGKNGEPKRTISYMAERVVGTGSFGIVFQAKCLETGETVAIKKVLQDRRYKNRELQLMRAMDHPNVISLKHCFFSTTSRDELFLNLVMEYVPETLYRVLKHYSNANHRMPLIYVKLYMYQLFRGLAYIHTVPGVCHRDVKPQNVLVDPLTHQVKLCDFGSAKTLVPGEPNISYICSRYYRAPELIFGATEYTTSIDIWSAGCVLAELLLGQPLFPGESAVDQLVEIIKVLGTPTREEIRCMNPNYTEFRFPQIKAHPWHKVFHKRMPPEAIDLASRLLQYSPSLRCTALDACAHPFFDELREPNARLPNGRPFPPLFNFKHELANSSQELISRLIPEHVRRQATHNFFNTGS
In the case of B1, the binding [1] is reported as “binds”.

B2: OsGSK2 in pSPYNE-35S (BiFC fusion) (enzyme, UniProt Q60EZ2 1-402)
chain: MDQPAPAPEPMLLDAQPPAAVACDKKQQEGEAPYAEGNDAVTGHIISTTIGGKNGEPKRTISYMAERVVGTGSFGIVFQAKCLETGETVAIKKVLQDRRYKNRELQLMRAMDHPNVISLKHCFFSTTSRDELFLNLVMEYVPETLYRVLKHYSNANHRMPLIYVKLYMYQLFRGLAYIHTVPGVCHRDVKPQNVLVDPLTHQVKLCDFGSAKTLVPGEPNISYICSRYYRAPELIFGATEYTTSIDIWSAGCVLAELLLGQPLFPGESAVDQLVEIIKVLGTPTREEIRCMNPNYTEFRFPQIKAHPWHKVFHKRMPPEAIDLASRLLQYSPSLRCTALDACAHPFFDELREPNARLPNGRPFPPLFNFKHELANSSQELISRLIPEHVRRQATHNFFNTGS
For B2, the binding [2] was “binds”.

B3: OsGSK2, yeast two-hybrid fusion (enzyme, UniProt Q60EZ2 1-402)
chain: MDQPAPAPEPMLLDAQPPAAVACDKKQQEGEAPYAEGNDAVTGHIISTTIGGKNGEPKRTISYMAERVVGTGSFGIVFQAKCLETGETVAIKKVLQDRRYKNRELQLMRAMDHPNVISLKHCFFSTTSRDELFLNLVMEYVPETLYRVLKHYSNANHRMPLIYVKLYMYQLFRGLAYIHTVPGVCHRDVKPQNVLVDPLTHQVKLCDFGSAKTLVPGEPNISYICSRYYRAPELIFGATEYTTSIDIWSAGCVLAELLLGQPLFPGESAVDQLVEIIKVLGTPTREEIRCMNPNYTEFRFPQIKAHPWHKVFHKRMPPEAIDLASRLLQYSPSLRCTALDACAHPFFDELREPNARLPNGRPFPPLFNFKHELANSSQELISRLIPEHVRRQATHNFFNTGS
For B3, the binding [3] was “no binding” and the binding [4] was “no binding”.
